# Construct, isoform or probe ends are uncertain for at least one entry. At least one result comes from cells or an extract, where the contact may be indirect. Negatives hold for the conditions tested. At least one verdict was read from the data and is not stated in words by the source.
# Amino acid sequences for entries named in this document (tags omitted). A change or cut given only in a name is not applied to a line headed by its entry.
# UniProt P46099: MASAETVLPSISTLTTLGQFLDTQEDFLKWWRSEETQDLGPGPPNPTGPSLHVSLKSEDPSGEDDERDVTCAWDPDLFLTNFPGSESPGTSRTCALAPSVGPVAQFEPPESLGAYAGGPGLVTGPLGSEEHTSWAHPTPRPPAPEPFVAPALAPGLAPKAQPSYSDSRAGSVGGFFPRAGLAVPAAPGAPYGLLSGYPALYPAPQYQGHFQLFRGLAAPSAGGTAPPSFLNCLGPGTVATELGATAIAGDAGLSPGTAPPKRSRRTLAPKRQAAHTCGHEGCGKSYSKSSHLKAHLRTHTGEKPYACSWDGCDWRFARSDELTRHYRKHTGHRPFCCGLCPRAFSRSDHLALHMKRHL
# Biological target: KLF1 (EKLF) (UniProt P46099)
# Assay: EMSA
# Conditions: COS-7 nuclear extract, 6% native PAGE in TBE (45 mM Tris, 45 mM boric acid, 1 mM EDTA), 4 C, 250 V, 1 h 40 min, binding buffer not given, protein in a lysate after overexpression, label: 32P on sense strand 5' end
sequence,measurement,setting,value
GGCCAGCCCCGCCTTGACCAATA (double strand) [HBG2 -132 to -110 -123T>C/-124T>C],binding result,"modest binding, supershift with anti-KLF1",binds
GGCCAGCCTTGCCTTGACCAATA (double strand) [HBG2 -132 to -110 WT],binding result,,no binding
TAGAGCCACACCCTGGTAAG (double strand) [Hbbt1 CACCC (KLF1 positive control)],binding result,positive control,binds
